Values from PubChem BioAssay AID652243 (Drosophila RNAi Screening Center, 2013)
The screen tested about 24,000 reagents; this is an unselected part of those that have a named target and a result. In the full data, 246 (1%) were called active. 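Plates not normalised; calls are printed but the firefly/Renilla ratio behind them is not deposited; fold cut for lowering reported inconsistently.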 The raw values are shown without normalisation. Not given: the amount of reagent.

Aim: 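Fly genes required for human androgen receptor driven transcription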 (primary screen)
Cell system: Drosophila S2R+ cells
Knock-down reagent: long dsRNA against Drosophila genes
Timing: 72 h (48 h, then 24 h hormone)
Conditions: synthetic androgen R1881 at 10 nM for 24 h
Measured: 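Firefly light from an androgen-responsive reporter and Renilla control light per well, raw and unnormalised, for each of two replicates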
Scale: firefly reporter light: higher = more light from androgen-responsive reporter; Renilla control light: higher = more constitutive control signal (cell number, transfection)
Call rule: 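Hit when the log firefly-to-Renilla ratio dropped or increased by a fixed fold versus the mean of GFP or LacZ controls across duplicate plates; lowering cut given as 1.5 and as 3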
Meaning of the calls: active = hit: reporter lowered or raised; inactive = no hit

{"gene knocked down": "CG31663", "amplicon": "DRSC00078", "firefly reporter light, replicate 1": 2.49e5, "firefly reporter light, replicate 2": 2.83e5, "Renilla control light, replicate 1": 4.78e5, "Renilla control light, replicate 2": 4.52e5, "Call": "inactive"}
{"gene knocked down": "CG31663", "amplicon": "DRSC00389", "firefly reporter light, replicate 1": 1.23e6, "firefly reporter light, replicate 2": 1.46e6, "Renilla control light, replicate 1": 3.98e6, "Renilla control light, replicate 2": 3.44e6, "Call": "inactive"}
{"gene knocked down": "CG31663", "amplicon": "DRSC00390", "firefly reporter light, replicate 1": 7.85e5, "firefly reporter light, replicate 2": 7.53e5, "Renilla control light, replicate 1": 3.55e6, "Renilla control light, replicate 2": 3.63e6, "Call": "inactive"}
{"gene knocked down": "CG31663", "amplicon": "DRSC00393", "firefly reporter light, replicate 1": 1.01e5, "firefly reporter light, replicate 2": 1.69e5, "Renilla control light, replicate 1": 6.85e5, "Renilla control light, replicate 2": 1.01e6, "Call": "inactive"}
{"gene knocked down": "pasi2", "amplicon": "DRSC16380", "firefly reporter light, replicate 1": 1.17e5, "firefly reporter light, replicate 2": 90284, "Renilla control light, replicate 1": 2.14e6, "Renilla control light, replicate 2": 1.98e6, "Call": "inactive"}
{"gene knocked down": "CG3604", "amplicon": "DRSC00618", "firefly reporter light, replicate 1": 1.30e5, "firefly reporter light, replicate 2": 81266, "Renilla control light, replicate 1": 9.59e5, "Renilla control light, replicate 2": 7.39e5, "Call": "inactive"}
{"gene knocked down": "Dr", "amplicon": "DRSC17002", "firefly reporter light, replicate 1": 7.06e5, "firefly reporter light, replicate 2": 8.94e5, "Renilla control light, replicate 1": 1.18e6, "Renilla control light, replicate 2": 1.14e6, "Call": "inactive"}
{"gene knocked down": "Dr", "amplicon": "DRSC22708", "firefly reporter light, replicate 1": 6.74e5, "firefly reporter light, replicate 2": 7.71e5, "Renilla control light, replicate 1": 2.91e5, "Renilla control light, replicate 2": 3.33e5, "Call": "inactive"}
{"gene knocked down": "VhaPPA1-2", "amplicon": "DRSC16176", "firefly reporter light, replicate 1": 2.06e5, "firefly reporter light, replicate 2": 2.25e5, "Renilla control light, replicate 1": 2.49e6, "Renilla control light, replicate 2": 3.25e6, "Call": "inactive"}
{"gene knocked down": "VhaPPA1-2", "amplicon": "DRSC25591", "firefly reporter light, replicate 1": 1.21e6, "firefly reporter light, replicate 2": 1.36e6, "Renilla control light, replicate 1": 1.28e6, "Renilla control light, replicate 2": 1.33e6, "Call": "inactive"}

Next part; the last 3 above are carried over.
{"gene knocked down": "Dr", "amplicon": "DRSC22708", "firefly reporter light, replicate 1": 6.74e5, "firefly reporter light, replicate 2": 7.71e5, "Renilla control light, replicate 1": 2.91e5, "Renilla control light, replicate 2": 3.33e5, "Call": "inactive"}
{"gene knocked down": "VhaPPA1-2", "amplicon": "DRSC16176", "firefly reporter light, replicate 1": 2.06e5, "firefly reporter light, replicate 2": 2.25e5, "Renilla control light, replicate 1": 2.49e6, "Renilla control light, replicate 2": 3.25e6, "Call": "inactive"}
{"gene knocked down": "VhaPPA1-2", "amplicon": "DRSC25591", "firefly reporter light, replicate 1": 1.21e6, "firefly reporter light, replicate 2": 1.36e6, "Renilla control light, replicate 1": 1.28e6, "Renilla control light, replicate 2": 1.33e6, "Call": "inactive"}
{"gene knocked down": "Ppt2", "amplicon": "DRSC02786", "firefly reporter light, replicate 1": 1.15e6, "firefly reporter light, replicate 2": 1.66e6, "Renilla control light, replicate 1": 2.71e6, "Renilla control light, replicate 2": 3.07e6, "Call": "inactive"}
{"gene knocked down": "Ppt2", "amplicon": "DRSC26027", "firefly reporter light, replicate 1": 5.40e5, "firefly reporter light, replicate 2": 5.08e5, "Renilla control light, replicate 1": 6.97e5, "Renilla control light, replicate 2": 7.66e5, "Call": "inactive"}
{"gene knocked down": "sxc", "amplicon": "DRSC04911", "firefly reporter light, replicate 1": 2.65e5, "firefly reporter light, replicate 2": 2.99e5, "Renilla control light, replicate 1": 2.34e6, "Renilla control light, replicate 2": 1.92e6, "Call": "inactive"}
{"gene knocked down": "Jarid2", "amplicon": "DRSC10372", "firefly reporter light, replicate 1": 5.53e5, "firefly reporter light, replicate 2": 4.96e5, "Renilla control light, replicate 1": 8.76e5, "Renilla control light, replicate 2": 8.62e5, "Call": "inactive"}
{"gene knocked down": "gnu", "amplicon": "DRSC10497", "firefly reporter light, replicate 1": 1.34e6, "firefly reporter light, replicate 2": 9.73e5, "Renilla control light, replicate 1": 1.44e6, "Renilla control light, replicate 2": 1.62e6, "Call": "inactive"}
{"gene knocked down": "IntS14", "amplicon": "DRSC00668", "firefly reporter light, replicate 1": 6.34e5, "firefly reporter light, replicate 2": 6.38e5, "Renilla control light, replicate 1": 2.67e6, "Renilla control light, replicate 2": 2.19e6, "Call": "inactive"}
{"gene knocked down": "Rab2", "amplicon": "DRSC05017", "firefly reporter light, replicate 1": 6.27e5, "firefly reporter light, replicate 2": 9.96e5, "Renilla control light, replicate 1": 1.67e6, "Renilla control light, replicate 2": 2.12e6, "Call": "inactive"}
{"gene knocked down": "Rab2", "amplicon": "DRSC26810", "firefly reporter light, replicate 1": 3.38e5, "firefly reporter light, replicate 2": 2.87e5, "Renilla control light, replicate 1": 6.67e5, "Renilla control light, replicate 2": 4.20e5, "Call": "inactive"}
{"gene knocked down": "UBL3", "amplicon": "DRSC23292", "firefly reporter light, replicate 1": 8.40e5, "firefly reporter light, replicate 2": 9.47e5, "Renilla control light, replicate 1": 6.93e5, "Renilla control light, replicate 2": 6.79e5, "Call": "inactive"}
{"gene knocked down": "t-Grip91", "amplicon": "DRSC01506", "firefly reporter light, replicate 1": 2.28e5, "firefly reporter light, replicate 2": 2.79e5, "Renilla control light, replicate 1": 6.24e5, "Renilla control light, replicate 2": 4.40e5, "Call": "inactive"}
{"gene knocked down": "Cyp6a9", "amplicon": "DRSC07385", "firefly reporter light, replicate 1": 1.02e5, "firefly reporter light, replicate 2": 98621, "Renilla control light, replicate 1": 3.95e6, "Renilla control light, replicate 2": 3.95e6, "Call": "inactive"}
